Measurements: patent publication US6458978B1, “Fluorous phosphines and process for their preparation” (Atofina Vlissingen B.V., priority 1998, dated 2002)
Some results were stated once for a whole list of compounds, not compound by compound. At least one structure is not confirmed: it was looked up by name or label, or the drawing left a doubt.

Test: Rhodium catalyzed hydrogenation of 1-octene under single phase fluorous conditions with catalyst recycling
Conditions: for n-octane yield: GC, GC-MS
Description: (Table 5). In this respect compounds H{1,6} and H{1,8} are true fluorous equivalents of the classical Wilkinson's hydrogenation catalyst (PPh3)3RhCl. The hydrogenation products were readily isolated from the catalyst layer by cooling of the reaction mixture to 0° C. followed by phase separation of the resulting biphasic system. In this way hydrogenation of 1-octene afforded n-octane in >95% yield (GC, GC-MS). Less than 4.3% internal olefins resulting from isomerization were present. In case of H{1,8} it was possible to recycle the fluorous catalyst layer multiple times allowing high turnover numbers and high conversions per cycle (Table 5 and FIG. 5).
20. Rhodium Catalyzed Hydrogenation Reactions
The catalytic experiments were carried out in a 30 mL Schienk flask, under dihydrogen atmosphere (1 bar). The catalyst was either dissolved in a hydrogen saturated toluene or perfluoro solvent and the mixture was stirred with a magnetic stirring bar (900 rpm). The olefinic substrate was added after initial dihydrogen uptake had ceased. The dihydrogen uptake was monitored using two mineral oil filled gas burettes. During the hydrogenation reactions one burette was opened to the reaction vessel while the other was recharged with dihydrogen.
Only catalysts prepared through method 1 were used. Catalytic reactions were carried out under single phase fluorous conditions in c-CF3C6F11 (2 mL) at 80° C. After >90% conversion (monitored by the H2 uptake) the homogeneous reaction mixture was cooled to 0° C. and the upper organic layer was siphoned of. In between cycles the fluorous layer was kept under H2 atmosphere. By warming up to 80° C. and addition of a fresh portion of 1-octene (12.74 mmol) a new cycle was started. The organic phases resulting from the first cycle were analyzed by GC and ICP-AAS.

| SMILES | internal olefins resulting from isomerization | n-octane yield [%] |
| --- | --- | --- |
| C[Si](C)(CCC(F)(F)C(F)(F)C(F)(F)C(F)(F)C(F)(F)C(F)(F)C(F)(F)C(F)(F)F)c1ccc(P(c2ccc([Si](C)(C)CCC(F)(F)C(F)(F)C(F)(F)C(F)(F)C(F)(F)C(F)(F)C(F)(F)C(F)(F)F)cc2)c2ccc([Si](C)(C)CCC(F)(F)C(F)(F)C(F)(F)C(F)(F)C(F)(F)C(F)(F)C(F)(F)C(F)(F)F)cc2)cc1.C[Si](C)(CCC(F)(F)C(F)(F)C(F)(F)C(F)(F)C(F)(F)C(F)(F)C(F)(F)C(F)(F)F)c1ccc(P(c2ccc([Si](C)(C)CCC(F)(F)C(F)(F)C(F)(F)C(F)(F)C(F)(F)C(F)(F)C(F)(F)C(F)(F)F)cc2)c2ccc([Si](C)(C)CCC(F)(F)C(F)(F)C(F)(F)C(F)(F)C(F)(F)C(F)(F)C(F)(F)C(F)(F)F)cc2)cc1.C[Si](C)(CCC(F)(F)C(F)(F)C(F)(F)C(F)(F)C(F)(F)C(F)(F)C(F)(F)C(F)(F)F)c1ccc(P(c2ccc([Si](C)(C)CCC(F)(F)C(F)(F)C(F)(F)C(F)(F)C(F)(F)C(F)(F)C(F)(F)C(F)(F)F)cc2)c2ccc([Si](C)(C)CCC(F)(F)C(F)(F)C(F)(F)C(F)(F)C(F)(F)C(F)(F)C(F)(F)C(F)(F)F)cc2)cc1.[Cl][Rh] [H{1,8}, (D{1,8})3RhCl] | Less than 4.3% | > 95 |
| C[Si](C)(CCC(F)(F)C(F)(F)C(F)(F)C(F)(F)C(F)(F)C(F)(F)F)c1ccc([PH](c2ccc([Si](C)(C)CCC(F)(F)C(F)(F)C(F)(F)C(F)(F)C(F)(F)C(F)(F)F)cc2)(c2ccc([Si](C)(C)CCC(F)(F)C(F)(F)C(F)(F)C(F)(F)C(F)(F)C(F)(F)F)cc2)[Rh]([Cl])([PH](c2ccc([Si](C)(C)CCC(F)(F)C(F)(F)C(F)(F)C(F)(F)C(F)(F)C(F)(F)F)cc2)(c2ccc([Si](C)(C)CCC(F)(F)C(F)(F)C(F)(F)C(F)(F)C(F)(F)C(F)(F)F)cc2)c2ccc([Si](C)(C)CCC(F)(F)C(F)(F)C(F)(F)C(F)(F)C(F)(F)C(F)(F)F)cc2)[PH](c2ccc([Si](C)(C)CCC(F)(F)C(F)(F)C(F)(F)C(F)(F)C(F)(F)C(F)(F)F)cc2)(c2ccc([Si](C)(C)CCC(F)(F)C(F)(F)C(F)(F)C(F)(F)C(F)(F)C(F)(F)F)cc2)c2ccc([Si](C)(C)CCC(F)(F)C(F)(F)C(F)(F)C(F)(F)C(F)(F)C(F)(F)F)cc2)cc1 [H{1,6}, (D{1,6})3RhCl] | Less than 4.3% | > 95 |
